Data from publication PMC11009467.
Construct, isoform or probe ends are uncertain for at least one entry. Negatives hold for the conditions tested. At least one verdict rests on a figure or table, not on a statement of the authors.

System: GST-CsERF017 (Citrus sinensis)
Assay: EMSA
Conditions: Beyotime Chemiluminescent EMSA Kit per manufacturer; unlabeled oligonucleotides as competitors; pH and temperature not stated; recombinant protein; protein details: N-terminal GST (pGEX-6p-3); label: 5'-biotin

Sequence | binding result
AAACTTAAGCCCCTTCTTCATCAAAAAAAACTCAAAAATTTTGTAACCAA (double strand) [CsCYP82L1 promoter Mutant Probe P2] | no binding
AAACTTAAGCCCCTTCTTCATCACCGACAACTCAAAAATTTTGTAACCAA (double strand) [CsCYP82L1 promoter Probe P2] | binds
AACTTTTATTTGACAACTAAATAAAAATGCCAAATCTTGTTTCCAGAGTG (double strand) [CsCYP82L1 promoter Mutant Probe P1] | no binding
AACTTTTATTTGACAACTAAATGTCGGTGCCAAATCTTGTTTCCAGAGTG (double strand) [CsCYP82L1 promoter Probe P1] | binds
